# Construct, isoform or probe ends are uncertain for at least one entry. Results from cells or extracts need not show a direct contact. A negative result means that nothing was seen under these conditions.
# Chains of the proteins cited; added tags and fusions are not shown.
# UniProt Q62351, whole entry: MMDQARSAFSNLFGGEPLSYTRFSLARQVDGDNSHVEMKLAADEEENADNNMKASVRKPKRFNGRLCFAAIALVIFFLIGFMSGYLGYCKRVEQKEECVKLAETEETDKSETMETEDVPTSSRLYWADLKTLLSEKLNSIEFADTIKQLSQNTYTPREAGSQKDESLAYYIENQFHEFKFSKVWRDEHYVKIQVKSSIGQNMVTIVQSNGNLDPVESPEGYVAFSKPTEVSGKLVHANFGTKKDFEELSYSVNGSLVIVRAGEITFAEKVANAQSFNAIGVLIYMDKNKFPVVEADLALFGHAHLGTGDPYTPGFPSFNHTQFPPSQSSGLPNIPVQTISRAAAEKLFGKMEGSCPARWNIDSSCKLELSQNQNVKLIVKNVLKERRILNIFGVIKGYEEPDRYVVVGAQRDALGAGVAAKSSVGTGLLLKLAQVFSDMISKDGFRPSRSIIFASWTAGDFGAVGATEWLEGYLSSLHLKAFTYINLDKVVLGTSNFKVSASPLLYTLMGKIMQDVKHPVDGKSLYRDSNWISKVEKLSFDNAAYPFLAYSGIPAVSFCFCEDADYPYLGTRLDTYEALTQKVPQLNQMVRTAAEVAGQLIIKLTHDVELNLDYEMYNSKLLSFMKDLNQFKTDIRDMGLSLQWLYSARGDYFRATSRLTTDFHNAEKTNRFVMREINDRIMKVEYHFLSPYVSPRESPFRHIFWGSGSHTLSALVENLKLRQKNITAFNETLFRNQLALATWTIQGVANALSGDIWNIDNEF
# Target: transferrin receptor (TfR) / EpCAM on 4T1 cells (mouse) (UniProt Q62351)
# Assay: flow cytometry (4T1 cells)
# Settings: Live-cell flow cytometry, 5e5 cells, 0-400 nM aptamer, PBS with 10% FCS, 0.1 mg/mL tRNA, 0.1 mg/mL BSA, 60 min, 37 C; aptamer folded in PBS with 5 mM MgCl2; protein on the cell surface; label: 3' TYE665; folded or branched DNA
sequence,measurement,value
GCGCGTGCACGCGCTAACGGATTCCTTTTCCGT [TENN],binding result,no binding

# Reference: publication PMC7133447
